From PubChem BioAssay AID651702 (NMMLSC, 2012)
Out of some 360,000 compounds screened, about 2,400 (0.67%) were called active. This list was built around the results that the source calls inconclusive (neither active nor inactive); the mix of calls is not that of the screen.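 The calls were made as follows: active = inhibition above about 55% (limit read from the data); inconclusive = no clear call, values can overlap the other calls; inactive = the rest.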

assay: LAMP-1 surface exposure blockers, TALL-104 cells – cell-based, flow cytometry, MLPCN library, primary screen (AID 651702); details: TALL-104 LAMP-1 surface exposure, cells stimulated with thapsigargin and PMA; at 10 µM, hits give high values

| Compound | inhibition |
| --- | --- |
| CC(C)C(C(=O)NCc1ccco1)N(C(=O)CNS(=O)(=O)c1ccccc1)C1CCCC1 (configuration not stated) | inconclusive |
| CCOc1cc(/C=C2\C(=O)N(c3cccc(C(F)(F)F)c3)C(=O)c3ccccc32)ccc1O | inconclusive |
| CCc1nc2ccc(C(=O)Nc3cc(-c4ccccc4)ccc3OC)cn2c1N(CCN(C)C)CC1CC1 | active: 59.5% |
| Cn1nc(C(=O)Nc2cccc(C(F)(F)F)c2)c2ccccc2c1=O | inconclusive |
| O=C(NCc1ccccc1)C1C(=O)Nc2ccccc2C(=O)N1Cc1ccccc1 (configuration not stated) | inactive: -4% |
| Cc1cccc(N2CCN(S(=O)(=O)c3ccc(-c4cc(C)no4)s3)CC2C)c1 (configuration not stated) | inconclusive |
| Cc1nc(C(=O)NCc2ccccc2)sc1C1(C)CC(c2cccc([N+](=O)[O-])c2)=NO1 (configuration not stated) | active: 59.1% |
| Cc1cc(OCCn2cncn2)ccc1[N+](=O)[O-] | inconclusive |
| O=C(/C=C/c1cccc(Cl)c1)c1ccc([N+](=O)[O-])o1 | inactive: -3.6% |
| CC(Oc1ccc(Br)cc1)C(=O)NCC(C)(C)N1CCOCC1 (configuration not stated) | inconclusive |
| O=S(=O)(c1ccc2nc(-c3ccccc3)[nH]c2c1)N1CCN(c2ccc(Cl)cc2)CC1 | inactive: 1.6% |
| O=C1/C(=C\c2ccc(Cl)c(Cl)c2)CN(C(=O)CCN2CCOCC2)C/C1=C/c1ccc(Cl)c(Cl)c1 | active: 65.3% |
| CC(=O)c1cccc(NC(=O)C2CCN(C(=O)c3cccs3)CC2)c1 | inconclusive |
| O=C1c2cccc3cccc(c23)C(=O)N1CC1CCN(CC(O)COc2ccc3ccccc3c2)CC1 (configuration not stated) | active: 58% |
| COc1ccc(/C=C(\C#N)C(=O)OCC(=O)NCc2ccccc2Cl)cc1 | inconclusive |
| Fc1ccc(Nc2nc(NCc3cccs3)nc3ccsc23)cc1 | inconclusive |
| CCn1c(SCC(=O)N/N=C(/C)c2ccncc2)nc2ccccc21 | active: 60.5% |
| Cc1ccc(Nc2cc(C)c(O)c(C)c2)cc1 | active: 67.3% |
| COc1ccccc1C(=O)N1CC(=O)Nc2ccc(F)cc2C1c1ccccc1 (configuration not stated) | inconclusive |
| COc1cccc(NC(=O)COC(=O)c2c(C)nn(-c3ccccc3)c2C)c1 | inactive: -4.7% |
| CC(C)(C)NC(=O)C(c1ccccc1)n1c(=O)c(-c2ccccc2)nc2ccccc21 (configuration not stated) | inactive: 3.1% |
| CN1C(=O)N(C)C2(c3ccccc3)NC(=O)NC12c1ccccc1 (configuration not stated) | inconclusive |
| CSCCC(NC(=O)c1ccc(Cl)cc1)C(=O)OCC(=O)Nc1cc(Cl)ccc1C (configuration not stated) | inconclusive |

| Compound | inhibition |
| --- | --- |
| Cc1nc2ccc(NC(=O)CCS(=O)(=O)c3ccccc3)cc2s1 | inconclusive |
| Cc1cc(=O)oc2cc(OCCCN3C(=O)c4ccccc4C3=O)ccc12 | inconclusive |
| CC(C)c1ccc(NC2CCCN(C(=O)c3ccc4nccnc4c3)C2)cc1 (configuration not stated) | inactive: 6.4% |
| COC(=O)C1=C(C(=O)OC)[C@@H]2N(C)c3ccccc3[C@@]23C[C@@H](CO)N(C(=O)c2cccs2)C3=N1 | inactive: 12.8% |
| CC1(C)CC(Nc2ccc(Nc3ccccc3)cc2)CC(C)(C)N1 | active: 82.8% |
| Cc1onc(-c2ccccc2)c1C(=O)N/N=C/c1cccc(O)c1 | inconclusive |
| Cc1cc(Nc2cccc(Cl)c2)c2ccccc2n1 | active: 77.5% |
| CN(C)CCCNS(=O)(=O)c1ccc(NC2CCCCCC2)c([N+](=O)[O-])c1 | active: 60.1% |
| Cc1ccc(Nc2nc(Cl)c(C=O)s2)cc1 | inconclusive |
| CCn1c(SCC(=O)Nc2ccc(C)cc2)nc2nc3c(cc2c1=O)CCCC3 | inconclusive |
| CCC1=NN(C(=O)COc2ccccc2)C(O)(c2ccc(Br)cc2)C1 (configuration not stated) | inconclusive |
| COc1ccccc1NC(=O)CCC(=O)OC(C)C(=O)c1ccccc1 (configuration not stated) | inconclusive |
| CC(C(=O)Nc1ccccc1Br)N1c2cccc3cccc(c23)S1(=O)=O (configuration not stated) | inconclusive |
| O=S(=O)(c1cccc(NC(=S)N2CCN(c3cccc(Cl)c3)CC2)c1)C(F)F | inactive: 38.4% |
| COc1ccccc1OCC(=O)N(Cc1nnc(-c2ccccc2Cl)o1)C1CC1 | inactive: -0.4% |
| COc1ccccc1CN(C)C(=O)c1cc(S(=O)(=O)N2CCCCCC2)ccc1OC | inconclusive |
| CC1CCN(c2nc(-c3cccnc3)nc3scc(-c4ccccc4)c23)CC1 | inactive: 8% |
| N#C/C(C(=O)NCCc1ccccc1)=C1/N=C(NC(=O)c2cccs2)c2ccccc21 | inactive: 10.4% |
| N#Cc1c(Nc2ccc(Cl)cc2)s[nH]c1=O | active: 82.7% |
| COc1ccccc1C(=O)N/C(=C\c1cn(C)c2ccccc12)C(=O)NCCCn1ccnc1 | active: 67.4% |
| CCCc1nc2ccc(NC(C)=O)cc2c(=O)n1Cc1ccccc1Cl | inconclusive |
| COc1ccc(N(CC(=O)NCc2ccc(F)cc2)C(=O)Cn2nnc(-c3ccc(C)o3)n2)cc1OC | inconclusive |
| Clc1cccc(CN2CCc3c([nH]c4ccccc34)C2)c1 | active: 58% |

A different layout for part of the listing above.
Compound	inhibition
CCc1nc2ccc(C(=O)Nc3cc(-c4ccccc4)ccc3OC)cn2c1N(CCN(C)C)CC1CC1	active: 59.5%
Fc1ccc(Nc2nc(NCc3cccs3)nc3ccsc23)cc1	inconclusive
CC1CCN(c2nc(-c3cccnc3)nc3scc(-c4ccccc4)c23)CC1	inactive: 8%
CCCc1nc2ccc(NC(C)=O)cc2c(=O)n1Cc1ccccc1Cl	inconclusive

More structures follow.

| Compound | inhibition |
| --- | --- |
| Cc1cc2oc(C(=O)NCc3ccccc3)cc(=O)c2cc1C | inconclusive |
| Cc1ccc(NC(=O)Cn2sc3nc(C)cc(C)c3c2=O)c(Cl)c1 | active: 81% |
| Cc1cc(Nc2cccc(F)c2)nc(-c2ccccc2O)n1 | inactive: 12.1% |
| CCOC(=O)[C@@H]1[C@H]2COc3ccccc3[C@@H]2N2C(=O)N(c3ccc(Cl)cc3)C(=O)[C@@]12C | active: 116% |
| CCn1c(=O)n(C)c2c(=O)n(C)c(=O)n(C)c21 | inconclusive |
| N#Cc1c(SCC(=O)Nc2nncs2)sc2c(O)cc(=O)[nH]c12 | inactive: 5.3% |
| O=C(O)CC(NC(=O)C(c1ccccc1)c1ccccc1)c1ccco1 (configuration not stated) | inconclusive |
| Cc1ccc(/C=C/C(=O)NC2CCCCCCC2)o1 | active: 58% |
| OC(c1cc(F)cc(Cl)c1)c1ncc(-c2ccc(Cl)cc2)[nH]1 (configuration not stated) | inconclusive |
| N#Cc1c(-c2ccc(Cl)cc2)c(C#N)c(=O)n(N)c1N | inconclusive |
| CCNC(=O)CSC1=N/C(=C\c2ccc(O)c(OCC)c2)C(=O)N1c1ccc(OC(F)F)cc1 | inactive: -2.1% |
| CCOC(=O)C1=C(C)NC(SC(C)=O)=NC1c1ccc(OC(C)=O)c(OC)c1 (configuration not stated) | inconclusive |
| CCOC(=O)N1CCC2(CC1)C(C(=O)C13CC4CC(CC(C4)C1)C3)C2(C#N)C#N (configuration not stated) | active: 71.3% |
| O=C1C(SCCO)=C(SCCO)C(=O)c2ccccc21 | active: 97.2% |
| COc1cc(/C=C/C(=O)CC(=O)/C=C/c2ccc(O)c(OC)c2)ccc1O | active: 83.8% |
| O=C(/C=C/c1ccc(F)cc1)NC(=S)NNC(=O)c1cccnc1 | inconclusive |
| CC(NC(=O)C1CCN(S(=O)(=O)c2cccc3nonc23)CC1)c1ccccc1 (configuration not stated) | inconclusive |
| COc1ccc(N2C(=O)CC(Sc3n[nH]c(-c4ccccc4)n3)C2=O)cc1 (configuration not stated) | active: 87.6% |
| CN1CCN(c2ccc(NC(=O)c3ccc(Oc4ccccc4)cc3)cc2)CC1 | inconclusive |
| CCOc1ccc(/C=N/NC(=O)CCC(=O)Nc2ccc(F)cc2)cc1 | inconclusive |
| CCC(C)NC(=O)Cn1cnc2sc(C)cc2c1=O (configuration not stated) | inconclusive |
| O=C1NC(=S)S/C1=C/c1ccc(OC(=O)c2ccco2)cc1 | active: 79.4% |
| CCc1c(C)c2ccc(O)c(CN3CCCC3)c2oc1=O | inconclusive |

| Compound | inhibition |
| --- | --- |
| COc1ccc(CNS(=O)(=O)NCc2ccc(OC)c(OC)c2)cc1 | inconclusive |
| O=C1CCC[C@@H]2C[C@@]3(C[C@@H]4CCN1[C@H]24)Nc1cc(Cl)ccc1NC3=NC1CCCCC1 | active: 75.5% |
| Cc1nnc(SCc2cc(=O)oc3cc(O)ccc23)n1Cc1ccccc1 | inconclusive |
| C=CCOc1ccc(/C=N/N2C(=O)C(CC(=O)Nc3ccc(F)cc3F)SC2=NC)cc1 (configuration not stated) | inactive: 8.3% |
| CCOc1cc(C(c2c(O)nc(SC)[nH]c2=O)c2c(O)nc(SC)[nH]c2=O)ccc1O | inactive: -3.8% |
| CC(=O)c1ccc(N2C(=NC(=O)CCC3CCCC3)SC3CS(=O)(=O)CC32)cc1 (configuration not stated) | inactive: -0.8% |
| CN(C)c1ccc(-c2nc3ccccn3c2/N=C/c2ccc(Br)cc2)cc1 | inconclusive |
| CS(=O)(=O)N(Cc1ccco1)CC(O)Cn1c2ccccc2c2ccccc21 (configuration not stated) | inactive: 6.9% |
| CC(=O)c1ccc(NC(=O)CN2CCN(CC(=O)Nc3ccc(C(C)=O)cc3)CC2)cc1 | inconclusive |
| O=C(NCc1ccccn1)c1ccc2nc(C3CCCCC3)oc2c1 | inconclusive |
| Cc1cc(C)cc(N(CC(=O)NCCSCc2ccco2)S(C)(=O)=O)c1 | inactive: -4.7% |
| O=C(CN(C(=O)CCC(=O)Nc1nccs1)c1cccc(F)c1)NCc1ccc2c(c1)OCO2 | inconclusive |
| Cc1nn(CC(=O)N(C)Cc2ccccc2)c(=O)c2cccn12 | inconclusive |
| O=C(NCc1ccccc1F)C1CCCN(S(=O)(=O)c2ccc(-n3cnnn3)cc2)C1 (configuration not stated) | inconclusive |
| COc1cc(Cl)c(CN2CCCC(CO)(Cc3ccccc3F)C2)cc1OC (configuration not stated) | active: 65.5% |
| COc1ccccc1N1CCN(C2CCCN(C(=O)c3ccoc3)C2)CC1 (configuration not stated) | inconclusive |
| O=C(C1CCCO1)N1CCN(C(=S)Nc2ccccc2)CC1 (configuration not stated) | inconclusive |
| COC(=O)C1=C(C(=O)c2ccccc2)C(c2ccccc2)n2nnnc2N1 (configuration not stated) | inconclusive |
| CCCCCc1cc(=O)oc2c(C(CCN3CCCCC3)c3ccc4c(c3)OCO4)c(OC)cc(OC)c12 (configuration not stated) | inactive: -0.2% |
| COCCNC(=O)C(c1ccc(Cl)cc1)N(C(=O)CCC(=O)Nc1ccccn1)C1CCCC1 (configuration not stated) | inconclusive |
| CCN1C(=O)Cc2cc(S(=O)(=O)NCCc3ccccc3)ccc21 | inactive: 5.9% |
| COc1ccc(C(=O)OCC(=O)Nc2cc(S(=O)(=O)N3CCOCC3)ccc2N2CCCC2)cc1 | inconclusive |
| CC(=O)Nc1cccc(NC(=O)C2CC(=O)N(C3CCCCC3)C2)c1 (configuration not stated) | inconclusive |
